# Data published in the supplement of paper PMC10849652.
# The chains behind the UniProt entries cited, without tags or fusion partners. Where a name states a change or a piece, a line headed by the entry shows the natural chain unless it says otherwise.
# UniProt Q969T9: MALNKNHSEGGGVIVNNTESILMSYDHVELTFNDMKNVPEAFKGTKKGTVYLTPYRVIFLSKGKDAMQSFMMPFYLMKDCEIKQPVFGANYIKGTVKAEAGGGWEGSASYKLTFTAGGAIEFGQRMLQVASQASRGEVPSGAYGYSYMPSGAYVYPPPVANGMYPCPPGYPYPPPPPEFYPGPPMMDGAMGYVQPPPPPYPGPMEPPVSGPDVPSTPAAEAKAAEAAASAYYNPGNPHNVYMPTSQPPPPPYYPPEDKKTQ
# UniProt P57081: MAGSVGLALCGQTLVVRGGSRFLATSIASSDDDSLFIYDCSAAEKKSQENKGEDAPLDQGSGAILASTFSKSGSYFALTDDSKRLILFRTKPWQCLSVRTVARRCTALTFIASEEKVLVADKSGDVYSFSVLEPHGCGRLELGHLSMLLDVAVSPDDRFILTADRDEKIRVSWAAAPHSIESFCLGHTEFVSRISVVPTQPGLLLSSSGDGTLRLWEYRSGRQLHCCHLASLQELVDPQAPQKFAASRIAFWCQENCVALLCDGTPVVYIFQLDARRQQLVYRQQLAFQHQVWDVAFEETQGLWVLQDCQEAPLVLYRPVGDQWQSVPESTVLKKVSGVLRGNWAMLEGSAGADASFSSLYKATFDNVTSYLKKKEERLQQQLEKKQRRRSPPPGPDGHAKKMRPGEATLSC
# UniProt Q2M389: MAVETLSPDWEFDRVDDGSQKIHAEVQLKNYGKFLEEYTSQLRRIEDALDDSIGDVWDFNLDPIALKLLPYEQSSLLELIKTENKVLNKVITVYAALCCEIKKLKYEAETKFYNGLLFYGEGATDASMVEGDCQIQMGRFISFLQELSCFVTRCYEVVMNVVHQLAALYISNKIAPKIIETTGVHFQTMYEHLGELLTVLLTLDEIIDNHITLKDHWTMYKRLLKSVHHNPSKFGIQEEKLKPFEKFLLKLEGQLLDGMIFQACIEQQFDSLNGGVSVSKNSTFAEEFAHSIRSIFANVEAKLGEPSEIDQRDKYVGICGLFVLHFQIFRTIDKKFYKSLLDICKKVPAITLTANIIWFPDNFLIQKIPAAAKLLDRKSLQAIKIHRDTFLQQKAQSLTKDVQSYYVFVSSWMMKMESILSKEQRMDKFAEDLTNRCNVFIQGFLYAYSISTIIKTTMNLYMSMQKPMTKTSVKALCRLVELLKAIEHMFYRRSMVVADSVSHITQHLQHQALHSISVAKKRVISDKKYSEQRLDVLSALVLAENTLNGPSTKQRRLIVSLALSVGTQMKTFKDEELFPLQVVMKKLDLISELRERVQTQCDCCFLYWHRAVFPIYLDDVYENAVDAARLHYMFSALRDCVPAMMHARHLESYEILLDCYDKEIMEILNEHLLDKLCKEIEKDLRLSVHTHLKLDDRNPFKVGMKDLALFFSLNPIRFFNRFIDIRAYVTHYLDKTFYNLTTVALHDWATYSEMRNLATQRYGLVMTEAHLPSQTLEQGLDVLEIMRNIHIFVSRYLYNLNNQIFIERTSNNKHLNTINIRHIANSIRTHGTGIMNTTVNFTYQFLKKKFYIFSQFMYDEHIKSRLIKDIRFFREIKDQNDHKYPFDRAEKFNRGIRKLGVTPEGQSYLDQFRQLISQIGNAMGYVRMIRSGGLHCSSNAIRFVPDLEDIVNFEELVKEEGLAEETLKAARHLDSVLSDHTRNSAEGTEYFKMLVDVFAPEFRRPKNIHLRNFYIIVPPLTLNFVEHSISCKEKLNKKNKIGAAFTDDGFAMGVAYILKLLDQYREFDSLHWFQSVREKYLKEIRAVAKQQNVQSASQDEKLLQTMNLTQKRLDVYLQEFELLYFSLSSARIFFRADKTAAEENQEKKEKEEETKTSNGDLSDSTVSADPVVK
# UniProt P45880: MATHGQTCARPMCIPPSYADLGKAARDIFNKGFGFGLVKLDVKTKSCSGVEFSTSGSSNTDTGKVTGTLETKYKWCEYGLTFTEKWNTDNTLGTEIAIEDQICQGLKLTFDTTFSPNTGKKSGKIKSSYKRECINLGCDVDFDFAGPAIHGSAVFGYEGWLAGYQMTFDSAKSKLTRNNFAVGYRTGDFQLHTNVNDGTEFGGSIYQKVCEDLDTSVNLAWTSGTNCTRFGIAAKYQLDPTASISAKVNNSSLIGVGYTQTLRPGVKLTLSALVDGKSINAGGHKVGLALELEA
# UniProt O43379: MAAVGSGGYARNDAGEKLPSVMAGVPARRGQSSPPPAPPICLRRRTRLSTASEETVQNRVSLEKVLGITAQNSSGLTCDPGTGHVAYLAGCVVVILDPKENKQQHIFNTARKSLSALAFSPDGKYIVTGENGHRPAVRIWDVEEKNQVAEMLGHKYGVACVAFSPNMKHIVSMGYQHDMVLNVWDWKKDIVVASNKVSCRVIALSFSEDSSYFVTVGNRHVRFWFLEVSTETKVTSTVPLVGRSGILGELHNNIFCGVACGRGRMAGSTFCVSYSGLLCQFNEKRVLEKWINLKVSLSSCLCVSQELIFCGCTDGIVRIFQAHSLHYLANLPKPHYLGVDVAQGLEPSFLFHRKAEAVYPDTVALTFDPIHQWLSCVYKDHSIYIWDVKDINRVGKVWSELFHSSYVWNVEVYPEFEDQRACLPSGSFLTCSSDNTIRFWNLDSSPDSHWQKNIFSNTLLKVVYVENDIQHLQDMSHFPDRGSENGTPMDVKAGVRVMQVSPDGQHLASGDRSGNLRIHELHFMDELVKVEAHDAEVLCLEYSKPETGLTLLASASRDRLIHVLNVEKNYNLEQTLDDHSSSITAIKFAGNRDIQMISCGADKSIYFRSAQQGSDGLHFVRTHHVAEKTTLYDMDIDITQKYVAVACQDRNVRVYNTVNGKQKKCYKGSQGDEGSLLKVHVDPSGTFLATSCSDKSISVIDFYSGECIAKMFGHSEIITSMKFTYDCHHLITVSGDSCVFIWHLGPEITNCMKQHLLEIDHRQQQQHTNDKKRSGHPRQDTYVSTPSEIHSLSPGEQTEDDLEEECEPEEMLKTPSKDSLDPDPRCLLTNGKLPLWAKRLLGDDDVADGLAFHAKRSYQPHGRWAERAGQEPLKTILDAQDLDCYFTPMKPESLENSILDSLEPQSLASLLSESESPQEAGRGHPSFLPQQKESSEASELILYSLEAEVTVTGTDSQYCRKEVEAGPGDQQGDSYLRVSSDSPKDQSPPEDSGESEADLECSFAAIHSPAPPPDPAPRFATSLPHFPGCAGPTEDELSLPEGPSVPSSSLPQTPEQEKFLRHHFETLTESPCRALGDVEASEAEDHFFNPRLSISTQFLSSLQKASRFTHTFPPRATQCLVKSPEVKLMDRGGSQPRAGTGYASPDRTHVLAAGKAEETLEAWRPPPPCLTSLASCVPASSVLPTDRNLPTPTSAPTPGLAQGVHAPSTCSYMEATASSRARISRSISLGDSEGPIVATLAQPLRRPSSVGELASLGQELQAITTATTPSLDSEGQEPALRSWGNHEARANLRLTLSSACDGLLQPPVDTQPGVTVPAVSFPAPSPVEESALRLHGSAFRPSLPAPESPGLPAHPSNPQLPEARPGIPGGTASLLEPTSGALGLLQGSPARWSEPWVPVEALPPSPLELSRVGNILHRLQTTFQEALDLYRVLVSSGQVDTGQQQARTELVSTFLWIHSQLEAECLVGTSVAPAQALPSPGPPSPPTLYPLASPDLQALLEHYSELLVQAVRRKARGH
# UniProt Q9UGM6: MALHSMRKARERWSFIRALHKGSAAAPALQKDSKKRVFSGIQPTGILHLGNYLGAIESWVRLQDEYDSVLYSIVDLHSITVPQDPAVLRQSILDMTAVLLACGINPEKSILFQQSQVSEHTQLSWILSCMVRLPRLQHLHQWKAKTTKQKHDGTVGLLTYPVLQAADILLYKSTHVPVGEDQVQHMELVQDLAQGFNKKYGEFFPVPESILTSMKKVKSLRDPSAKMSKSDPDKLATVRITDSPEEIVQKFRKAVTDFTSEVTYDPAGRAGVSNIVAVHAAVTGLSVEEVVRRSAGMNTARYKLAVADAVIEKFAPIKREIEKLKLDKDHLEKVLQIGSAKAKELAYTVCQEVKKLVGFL
# UniProt Q8N9V3: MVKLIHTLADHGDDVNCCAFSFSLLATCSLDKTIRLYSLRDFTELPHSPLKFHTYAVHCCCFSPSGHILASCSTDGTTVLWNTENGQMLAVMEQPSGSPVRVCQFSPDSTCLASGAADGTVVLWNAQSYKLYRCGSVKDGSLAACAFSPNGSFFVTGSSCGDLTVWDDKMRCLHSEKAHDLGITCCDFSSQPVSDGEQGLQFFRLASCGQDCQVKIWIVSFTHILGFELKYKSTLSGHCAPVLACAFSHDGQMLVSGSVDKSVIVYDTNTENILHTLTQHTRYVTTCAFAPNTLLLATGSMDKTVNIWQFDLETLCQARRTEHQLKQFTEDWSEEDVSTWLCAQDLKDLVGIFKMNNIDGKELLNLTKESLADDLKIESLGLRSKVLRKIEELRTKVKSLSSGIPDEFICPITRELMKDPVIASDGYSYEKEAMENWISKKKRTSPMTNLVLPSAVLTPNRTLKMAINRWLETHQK
# UniProt Q9UEU0: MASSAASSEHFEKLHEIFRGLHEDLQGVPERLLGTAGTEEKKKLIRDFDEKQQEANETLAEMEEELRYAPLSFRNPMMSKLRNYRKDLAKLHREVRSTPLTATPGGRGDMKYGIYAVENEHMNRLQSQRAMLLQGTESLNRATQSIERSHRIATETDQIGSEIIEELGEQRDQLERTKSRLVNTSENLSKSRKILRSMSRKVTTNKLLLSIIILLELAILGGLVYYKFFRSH
# UniProt Q9BRG1: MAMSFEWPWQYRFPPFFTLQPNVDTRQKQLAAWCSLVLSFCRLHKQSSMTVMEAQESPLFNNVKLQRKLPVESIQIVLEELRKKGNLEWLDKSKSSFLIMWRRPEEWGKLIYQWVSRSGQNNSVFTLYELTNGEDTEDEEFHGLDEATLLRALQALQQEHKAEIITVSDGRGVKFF
# UniProt Q9BQA1, whole entry, looked up: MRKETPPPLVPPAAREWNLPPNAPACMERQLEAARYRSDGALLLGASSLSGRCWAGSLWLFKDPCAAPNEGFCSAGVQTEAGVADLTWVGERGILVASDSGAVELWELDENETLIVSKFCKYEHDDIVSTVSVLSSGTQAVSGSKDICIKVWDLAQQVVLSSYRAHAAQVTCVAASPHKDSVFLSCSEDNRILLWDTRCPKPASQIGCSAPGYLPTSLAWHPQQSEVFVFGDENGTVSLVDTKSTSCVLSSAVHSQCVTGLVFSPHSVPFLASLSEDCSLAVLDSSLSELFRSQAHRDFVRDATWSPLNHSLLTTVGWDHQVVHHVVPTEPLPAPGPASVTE
# UniProt A6NGB9: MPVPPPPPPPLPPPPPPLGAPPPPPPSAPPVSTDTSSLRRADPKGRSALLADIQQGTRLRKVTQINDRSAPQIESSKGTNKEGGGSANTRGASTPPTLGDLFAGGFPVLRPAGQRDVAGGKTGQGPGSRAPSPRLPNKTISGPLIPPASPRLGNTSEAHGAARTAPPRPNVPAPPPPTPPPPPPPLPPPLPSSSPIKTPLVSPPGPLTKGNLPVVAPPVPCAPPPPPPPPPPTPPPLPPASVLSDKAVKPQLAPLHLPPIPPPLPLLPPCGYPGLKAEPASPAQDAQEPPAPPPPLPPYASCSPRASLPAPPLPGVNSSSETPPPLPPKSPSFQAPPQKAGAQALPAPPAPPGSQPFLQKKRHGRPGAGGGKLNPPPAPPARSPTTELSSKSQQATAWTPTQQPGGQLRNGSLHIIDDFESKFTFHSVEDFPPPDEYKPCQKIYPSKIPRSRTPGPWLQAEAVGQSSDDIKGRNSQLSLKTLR
# UniProt Q9H6Y2: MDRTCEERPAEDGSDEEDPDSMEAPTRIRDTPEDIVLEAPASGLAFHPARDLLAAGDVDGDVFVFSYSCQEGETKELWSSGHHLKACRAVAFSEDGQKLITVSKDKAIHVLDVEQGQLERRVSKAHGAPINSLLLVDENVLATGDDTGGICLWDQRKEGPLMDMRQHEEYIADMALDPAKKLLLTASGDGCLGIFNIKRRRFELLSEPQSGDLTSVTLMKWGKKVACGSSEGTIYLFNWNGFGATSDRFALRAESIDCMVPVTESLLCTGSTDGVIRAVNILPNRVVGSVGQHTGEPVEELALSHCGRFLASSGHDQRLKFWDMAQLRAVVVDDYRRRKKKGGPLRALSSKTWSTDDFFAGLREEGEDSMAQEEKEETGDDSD
# UniProt Q8IWB7: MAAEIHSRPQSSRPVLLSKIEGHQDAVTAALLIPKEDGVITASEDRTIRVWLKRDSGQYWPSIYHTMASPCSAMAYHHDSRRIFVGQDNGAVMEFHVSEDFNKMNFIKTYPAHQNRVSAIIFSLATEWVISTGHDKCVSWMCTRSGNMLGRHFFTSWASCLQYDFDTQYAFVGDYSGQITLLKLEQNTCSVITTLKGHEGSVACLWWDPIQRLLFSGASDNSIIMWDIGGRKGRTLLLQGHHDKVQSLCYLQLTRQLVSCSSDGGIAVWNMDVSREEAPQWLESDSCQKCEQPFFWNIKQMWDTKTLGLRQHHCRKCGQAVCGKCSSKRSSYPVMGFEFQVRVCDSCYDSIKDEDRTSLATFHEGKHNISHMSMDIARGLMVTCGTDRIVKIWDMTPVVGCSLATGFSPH
# The other results are listed elsewhere or left out.
# Assays:
# Assay in all cases: log2 fold change, soluble protein after heating vs DMSO (PISA); higher = thermal stabilisation; K562 cells, 10 uM, 30 min; active = over 0.2 and 3.5 SD of the protein, either way, in both replicates (recomputed)
# bafetinib = compound: Cc1ccc(NC(=O)c2ccc(CN3CC[C@H](N(C)C)C3)c(C(F)(F)F)c2)cc1Nc1nccc(-c2cncnc2)n1 [bafetinib]
# In short: (§1)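 K562 cells at 2×10^6 cells/mL were treated with 10 μM compound for 30 min. Aliquots were heated for 3 min across 48°C-58°C, pooled, and extracted in PBS with 0.5% NP-40 at 4°C; soluble protein was the supernatant after 21,000xg for 90 min. Soluble protein was quantified by TMTpro 16plex LC-MS/MS with channel sums equalised, and reported as log2 fold change in thermal stability against DMSO controls, with values from duplicates.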
# [1] = compound: Cc1cccc(CC(=O)N2CCc3c2ccc(-c2cn(C)c4ncnc(N)c24)c3F)n1
# In short: as §1
# nilotinib = compound: Cc1cn(-c2cc(NC(=O)c3ccc(C)c(Nc4nccc(-c5cccnc5)n4)c3)cc(C(F)(F)F)c2)cn1 [nilotinib]
# In short: as §1
# [2] = compound: Cc1nc(Nc2n[nH]c3c2CN(C(=O)N[C@H](CN(C)C)c2ccccc2)C3(C)C)c2sccc2n1
# In short: as §1
# dasatinib = compound: Cc1nc(Nc2ncc(C(=O)Nc3c(C)cccc3Cl)s2)cc(N2CCN(CCO)CC2)n1 [dasatinib]
# In short: as §1
# [3] = compound: Cc1ncc(-c2ccnc(Nc3ccc(S(C)(=O)=O)cc3)n2)n1C(C)C
# In short: as §1
# [4] = compound: Cn1cc(-c2ccc3c(c2)CCN3C(=O)Cc2cccc(C(F)(F)F)c2)c2c(N)ncnc21
# In short: as §1
# [5] = compound: Cn1cc(-c2ccc3nnc(C(F)(F)c4ccc5ncccc5c4)n3n2)cn1
# In short: as §1
# tipifarnib = compound: Cn1cncc1[C@@](N)(c1ccc(Cl)cc1)c1ccc2c(c1)c(-c1cccc(Cl)c1)cc(=O)n2C [tipifarnib]
# In short: as §1
# mubritinib = compound: FC(F)(F)c1ccc(/C=C/c2nc(COc3ccc(CCCCn4ccnn4)cc3)co2)cc1 [mubritinib]
# In short: as §1
Target,log2 fold change (bafetinib),log2 fold change [1],log2 fold change (nilotinib),log2 fold change [2],log2 fold change (dasatinib),log2 fold change [3],log2 fold change [4],log2 fold change [5],log2 fold change (tipifarnib),log2 fold change (mubritinib)
WDR6 (UniProt Q9NNW5),inactive: -0.007,inactive: 0.078,inactive: -0.017,inactive: 0.024,inactive: -0.045,inactive: -0.001,inactive: -0.025,inactive: -0.023,inactive: -0.01,inactive: 0.011
WASL (UniProt O00401),inactive: 0.011,inactive: -0.057,inactive: 0.067,inactive: 0.134,inactive: 0.017,inactive: -0.016,inactive: 0.021,inactive: -0.052,inactive: -0.085,inactive: 0.049
VPS13C (UniProt Q709C8),inactive: -0.115,inactive: 0.041,inactive: -0.024,inactive: 0.003,inactive: -0.055,inactive: 0.045,inactive: 0.013,inactive: -0.002,inactive: -0.024,inactive: 0.035
WASHC3 (UniProt Q9Y3C0),inactive: -0.06,inactive: -0.032,inactive: -0.042,inactive: 0.001,inactive: 0.047,inactive: 0.028,inactive: 0.035,inactive: 0.048,inactive: 0.029,inactive: 0.003
WBP2 (UniProt Q969T9),inactive: -0.035,inactive: 0.007,inactive: 0.016,inactive: -0.024,inactive: -0.011,inactive: 0.015,inactive: 0.041,inactive: 0.018,inactive: -0.01,inactive: 0.04
WDR4 (UniProt P57081),active: 0.455,inactive: -0.06,inactive: 0.009,inactive: 0.005,inactive: -0.013,inactive: -0.003,inactive: 0.068,inactive: -0.061,inactive: -0.132,inactive: 0.031
WASHC4 (UniProt Q2M389),inactive: -0.083,inactive: -0.067,inactive: -0.122,inactive: 0.102,inactive: -0.078,inactive: -0.155,inactive: -0.045,inactive: 0.036,inactive: 0.056,inactive: 0.017
VDAC2 (UniProt P45880),inactive: -0.038,inactive: -0.022,inactive: 0.02,inactive: 0.009,inactive: 0.033,inactive: 0,inactive: 0.016,inactive: -0.001,inactive: 0.045,inactive: 0.009
WDR62 isoform 4 (UniProt O43379),inactive: -0.193,inactive: 0.016,inactive: -0.149,inactive: -0.041,inactive: -0.107,inactive: -0.083,inactive: 0.009,inactive: 0.032,inactive: 0.002,inactive: 0.024
WARS2 (UniProt Q9UGM6),inactive: -0.183,inactive: 0.016,inactive: -0.086,inactive: -0.008,inactive: -0.147,inactive: 0.047,inactive: 0.022,inactive: -0.056,inactive: -0.046,active: -0.569
VPS11 (UniProt Q9H270),inactive: -0.033,inactive: 0.006,inactive: -0.048,inactive: -0.006,inactive: -0.154,inactive: 0.005,inactive: -0.016,inactive: -0.004,inactive: -0.093,inactive: 0.027
VPS53 isoform 4 (UniProt Q5VIR6),inactive: -0.04,inactive: 0.036,inactive: -0.1,inactive: -0.148,inactive: -0.087,inactive: 0.037,inactive: -0.035,inactive: -0.027,inactive: -0.061,inactive: 0.003
WIZ isoform 3 (UniProt O95785),inactive: 0.15,inactive: 0.02,inactive: -0.171,inactive: 0.1,inactive: -0.02,inactive: 0,inactive: 0,inactive: -0.052,inactive: -0.127,inactive: 0.035
WDTC1 (UniProt Q8N5D0),inactive: -0.079,inactive: 0,inactive: -0.086,inactive: 0.186,inactive: -0.139,inactive: -0.255,inactive: 0.017,inactive: 0.02,inactive: -0.131,inactive: 0.158
VWDE (UniProt Q8N2E2),inactive: 0.023,inactive: -0.108,inactive: -0.033,inactive: 0.029,inactive: -0.016,inactive: -0.002,inactive: -0.087,inactive: -0.047,inactive: 0.103,inactive: 0.032
WIPF2 (UniProt Q8TF74),inactive: -0.056,inactive: -0.021,inactive: 0.017,inactive: -0.031,inactive: -0.021,inactive: -0.013,inactive: 0.003,inactive: 0.002,inactive: 0.063,inactive: 0.042
WDSUB1 (UniProt Q8N9V3),inactive: -0.048,inactive: -0.036,inactive: -0.025,inactive: -0.025,inactive: -0.016,inactive: 0.012,inactive: 0.047,inactive: 0.065,inactive: -0.023,inactive: 0.048
VTI1B (UniProt Q9UEU0),inactive: -0.064,inactive: -0.177,inactive: 0.013,inactive: 0.015,inactive: -0.011,inactive: 0.027,inactive: 0,inactive: 0.037,inactive: 0.085,inactive: -0.055
WASF1 (UniProt Q92558),inactive: -0.138,inactive: -0.031,inactive: -0.083,inactive: -0.091,inactive: -0.163,inactive: -0.015,inactive: 0.048,inactive: 0.004,inactive: -0.009,inactive: 0.106
VPS13A (UniProt Q96RL7),inactive: -0.045,inactive: 0.027,inactive: -0.021,inactive: 0.008,inactive: -0.005,inactive: -0.006,inactive: -0.016,inactive: 0.022,inactive: 0.002,inactive: 0.008
VIM (UniProt P08670),inactive: -0.068,inactive: -0.004,inactive: 0.091,inactive: -0.117,inactive: 0.389,inactive: -0.047,inactive: -0.278,inactive: -0.143,inactive: 0.251,inactive: -0.283
VEZF1 (UniProt Q14119),inactive: 0.176,inactive: 0.057,inactive: -0.019,inactive: 0.029,inactive: 0.371,inactive: -0.009,inactive: -0.062,inactive: -0.134,inactive: 0.22,inactive: -0.184
VEZT (UniProt Q9HBM0),inactive: -0.188,inactive: 0.035,inactive: -0.061,inactive: -0.013,inactive: -0.096,inactive: 0.009,inactive: -0.039,inactive: 0.312,inactive: -0.043,inactive: 0.053
VPS25 (UniProt Q9BRG1),inactive: -0.063,inactive: 0.04,inactive: -0.034,inactive: -0.023,inactive: -0.001,inactive: -0.037,inactive: 0,inactive: 0.043,inactive: -0.042,inactive: 0.044
WDR77 (UniProt Q9BQA1),inactive: -0.001,inactive: 0.001,inactive: -0.012,inactive: 0.03,inactive: 0.054,inactive: -0.014,inactive: 0.044,inactive: -0.007,inactive: -0.045,inactive: 0.031
WIPF3 (UniProt A6NGB9),inactive: -0.042,inactive: 0.075,inactive: 0.009,inactive: 0.005,inactive: 0.232,inactive: 0.088,inactive: 0.004,inactive: -0.097,inactive: 0.023,inactive: 0.046
WRAP53 (UniProt Q9BUR4),inactive: -0.022,inactive: -0.007,inactive: 0.156,inactive: 0.021,inactive: 0.024,inactive: 0.172,inactive: -0.073,inactive: -0.07,inactive: 0.065,inactive: -0.059
WDR55 (UniProt Q9H6Y2),inactive: -0.035,inactive: -0.109,inactive: -0.034,inactive: 0.007,inactive: 0,inactive: 0.005,inactive: -0.011,inactive: -0.029,inactive: 0.074,inactive: 0.014
WASF2 (UniProt Q9Y6W5),inactive: -0.034,inactive: -0.025,inactive: 0.012,inactive: -0.033,inactive: 0.016,inactive: -0.03,inactive: -0.016,inactive: 0.013,inactive: 0.013,inactive: 0.025
WDFY1 (UniProt Q8IWB7),inactive: -0.115,inactive: -0.02,inactive: -0.012,inactive: -0.004,inactive: 0.048,inactive: -0.022,inactive: 0.017,inactive: 0.045,inactive: -0.021,inactive: 0.065

# Rewritten with tabs: part of the list above.
Target	log2 fold change (bafetinib)	log2 fold change [1]	log2 fold change (nilotinib)	log2 fold change [2]	log2 fold change (dasatinib)	log2 fold change [3]	log2 fold change [4]	log2 fold change [5]	log2 fold change (tipifarnib)	log2 fold change (mubritinib)
VEZF1 (UniProt Q14119)	inactive: 0.176	inactive: 0.057	inactive: -0.019	inactive: 0.029	inactive: 0.371	inactive: -0.009	inactive: -0.062	inactive: -0.134	inactive: 0.22	inactive: -0.184
VEZT (UniProt Q9HBM0)	inactive: -0.188	inactive: 0.035	inactive: -0.061	inactive: -0.013	inactive: -0.096	inactive: 0.009	inactive: -0.039	inactive: 0.312	inactive: -0.043	inactive: 0.053
